The exact form of at least one protein or probe is not confirmed. At least one result comes from cells or an extract, where the contact may be indirect. A negative result means that nothing was seen under these conditions.

The chains behind the UniProt entries cited, without tags or fusion partners. Where a name states a change or a piece, a line headed by the entry shows the natural chain unless it says otherwise.
UniProt P51654: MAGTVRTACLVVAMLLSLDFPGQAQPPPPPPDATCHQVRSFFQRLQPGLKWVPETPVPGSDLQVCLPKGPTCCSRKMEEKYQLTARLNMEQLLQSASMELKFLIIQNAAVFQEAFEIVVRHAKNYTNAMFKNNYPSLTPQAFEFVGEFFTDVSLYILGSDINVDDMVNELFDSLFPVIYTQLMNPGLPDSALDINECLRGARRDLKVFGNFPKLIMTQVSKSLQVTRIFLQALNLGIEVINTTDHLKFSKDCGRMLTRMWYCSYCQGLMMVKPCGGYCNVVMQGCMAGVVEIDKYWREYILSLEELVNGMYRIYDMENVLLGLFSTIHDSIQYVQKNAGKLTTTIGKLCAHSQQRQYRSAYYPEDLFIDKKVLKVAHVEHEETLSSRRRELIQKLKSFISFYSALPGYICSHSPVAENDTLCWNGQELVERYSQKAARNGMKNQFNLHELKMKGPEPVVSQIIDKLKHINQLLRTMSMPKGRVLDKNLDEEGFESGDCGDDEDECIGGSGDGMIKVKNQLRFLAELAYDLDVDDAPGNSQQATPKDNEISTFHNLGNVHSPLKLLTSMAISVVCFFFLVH

The series concerns the target Glypican-3 (GPC3) on HepG2 cell surface (UniProt P51654). The series is described as follows: cell binding, confocal microscopy. Conditions: HepG2 cells (GPC3+), 30 min, 5'-DBCO in the Table S1 version, Live HepG2 or HeLa cells incubated with FAM-labelled aptamer for 30 min, protein on the cell surface, label: 3'-FAM, single-stranded DNA.

Regarding “TAACGCTGACCTTAGCTGCATGGCTTTACATGTTCCA [Gpc3 aptamer-FAM]”, the binding result (no binding to GPC3-negative HeLa cells, the free aptamer is described only as FAM-modified) is “binds”.

Regarding “TGATGATTAACGTCGTTACCTTGATCTGCGTATCCTA [Random aptamer (Gpc3 aptamer with random mutations)]”, the binding result is on record as “no binding”.

The values above are taken from article PMC10477160.
